The supplement of paper PMC12067093, “Discovery and optimisation of a covalent ligand for TRIM25 and its application to targeted protein ubiquitination” (Chemical Science, 2025)
Some of the results follow.

Protein sequences, listed by entry. Tags and fused reporters are not part of them. Lines headed by an entry give the natural chain unless they say otherwise; changes in a name come on top.
UniProt Q9NVI1: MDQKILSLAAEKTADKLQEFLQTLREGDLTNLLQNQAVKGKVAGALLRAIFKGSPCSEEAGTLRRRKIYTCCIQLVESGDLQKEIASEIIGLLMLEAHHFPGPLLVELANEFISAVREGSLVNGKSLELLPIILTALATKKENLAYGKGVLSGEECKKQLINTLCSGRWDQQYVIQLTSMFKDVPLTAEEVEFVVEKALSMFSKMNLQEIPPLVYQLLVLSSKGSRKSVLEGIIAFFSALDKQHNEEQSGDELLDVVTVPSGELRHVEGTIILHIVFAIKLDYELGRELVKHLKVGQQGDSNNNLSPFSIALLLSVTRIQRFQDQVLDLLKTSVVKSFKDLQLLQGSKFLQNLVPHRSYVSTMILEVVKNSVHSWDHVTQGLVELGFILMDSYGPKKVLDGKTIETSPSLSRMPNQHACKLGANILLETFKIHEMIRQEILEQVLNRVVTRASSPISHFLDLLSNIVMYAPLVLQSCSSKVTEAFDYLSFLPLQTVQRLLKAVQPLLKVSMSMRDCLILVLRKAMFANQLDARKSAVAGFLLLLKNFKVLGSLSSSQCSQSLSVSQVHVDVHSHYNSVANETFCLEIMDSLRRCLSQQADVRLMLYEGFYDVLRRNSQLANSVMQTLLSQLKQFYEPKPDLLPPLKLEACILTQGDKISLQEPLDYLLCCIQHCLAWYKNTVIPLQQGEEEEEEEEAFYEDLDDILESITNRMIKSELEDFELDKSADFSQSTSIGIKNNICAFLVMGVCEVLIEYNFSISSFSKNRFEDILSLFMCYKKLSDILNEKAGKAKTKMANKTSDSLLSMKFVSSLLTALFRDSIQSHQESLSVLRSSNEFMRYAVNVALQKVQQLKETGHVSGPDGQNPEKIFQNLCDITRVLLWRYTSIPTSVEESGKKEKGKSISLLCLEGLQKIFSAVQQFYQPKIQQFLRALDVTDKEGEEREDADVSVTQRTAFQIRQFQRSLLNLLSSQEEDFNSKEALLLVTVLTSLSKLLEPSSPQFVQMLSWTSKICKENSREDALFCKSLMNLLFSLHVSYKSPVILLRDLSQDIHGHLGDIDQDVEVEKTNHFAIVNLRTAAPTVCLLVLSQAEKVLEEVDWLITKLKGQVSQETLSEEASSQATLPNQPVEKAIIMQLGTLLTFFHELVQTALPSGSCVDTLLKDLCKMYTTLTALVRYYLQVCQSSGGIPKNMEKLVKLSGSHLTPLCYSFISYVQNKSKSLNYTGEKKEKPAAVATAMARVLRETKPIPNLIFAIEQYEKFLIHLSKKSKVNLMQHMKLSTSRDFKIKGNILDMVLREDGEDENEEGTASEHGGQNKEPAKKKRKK
UniProt O14526: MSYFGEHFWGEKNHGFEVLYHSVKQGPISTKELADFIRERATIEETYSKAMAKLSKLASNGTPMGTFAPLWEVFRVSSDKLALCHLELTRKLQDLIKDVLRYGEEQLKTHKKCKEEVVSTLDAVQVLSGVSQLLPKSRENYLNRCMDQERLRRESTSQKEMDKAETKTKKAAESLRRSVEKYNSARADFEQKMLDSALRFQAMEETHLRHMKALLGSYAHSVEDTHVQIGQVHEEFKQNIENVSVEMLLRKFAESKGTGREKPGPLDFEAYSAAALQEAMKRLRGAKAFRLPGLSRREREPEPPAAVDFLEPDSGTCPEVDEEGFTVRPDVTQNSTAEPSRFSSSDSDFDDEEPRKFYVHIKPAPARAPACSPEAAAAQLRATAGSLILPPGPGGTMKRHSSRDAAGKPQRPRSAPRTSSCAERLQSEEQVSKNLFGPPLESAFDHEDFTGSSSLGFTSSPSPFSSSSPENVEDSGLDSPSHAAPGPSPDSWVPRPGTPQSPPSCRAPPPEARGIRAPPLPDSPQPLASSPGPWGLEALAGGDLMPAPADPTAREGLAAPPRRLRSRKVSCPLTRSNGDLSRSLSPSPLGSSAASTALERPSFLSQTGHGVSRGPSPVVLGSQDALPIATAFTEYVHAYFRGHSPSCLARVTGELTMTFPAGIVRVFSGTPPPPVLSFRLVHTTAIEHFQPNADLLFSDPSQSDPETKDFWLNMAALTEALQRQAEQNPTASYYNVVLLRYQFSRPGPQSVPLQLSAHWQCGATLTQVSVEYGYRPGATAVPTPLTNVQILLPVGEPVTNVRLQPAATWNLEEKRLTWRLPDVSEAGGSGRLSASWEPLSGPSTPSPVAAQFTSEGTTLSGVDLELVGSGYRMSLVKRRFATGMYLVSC
UniProt Q9BXW9: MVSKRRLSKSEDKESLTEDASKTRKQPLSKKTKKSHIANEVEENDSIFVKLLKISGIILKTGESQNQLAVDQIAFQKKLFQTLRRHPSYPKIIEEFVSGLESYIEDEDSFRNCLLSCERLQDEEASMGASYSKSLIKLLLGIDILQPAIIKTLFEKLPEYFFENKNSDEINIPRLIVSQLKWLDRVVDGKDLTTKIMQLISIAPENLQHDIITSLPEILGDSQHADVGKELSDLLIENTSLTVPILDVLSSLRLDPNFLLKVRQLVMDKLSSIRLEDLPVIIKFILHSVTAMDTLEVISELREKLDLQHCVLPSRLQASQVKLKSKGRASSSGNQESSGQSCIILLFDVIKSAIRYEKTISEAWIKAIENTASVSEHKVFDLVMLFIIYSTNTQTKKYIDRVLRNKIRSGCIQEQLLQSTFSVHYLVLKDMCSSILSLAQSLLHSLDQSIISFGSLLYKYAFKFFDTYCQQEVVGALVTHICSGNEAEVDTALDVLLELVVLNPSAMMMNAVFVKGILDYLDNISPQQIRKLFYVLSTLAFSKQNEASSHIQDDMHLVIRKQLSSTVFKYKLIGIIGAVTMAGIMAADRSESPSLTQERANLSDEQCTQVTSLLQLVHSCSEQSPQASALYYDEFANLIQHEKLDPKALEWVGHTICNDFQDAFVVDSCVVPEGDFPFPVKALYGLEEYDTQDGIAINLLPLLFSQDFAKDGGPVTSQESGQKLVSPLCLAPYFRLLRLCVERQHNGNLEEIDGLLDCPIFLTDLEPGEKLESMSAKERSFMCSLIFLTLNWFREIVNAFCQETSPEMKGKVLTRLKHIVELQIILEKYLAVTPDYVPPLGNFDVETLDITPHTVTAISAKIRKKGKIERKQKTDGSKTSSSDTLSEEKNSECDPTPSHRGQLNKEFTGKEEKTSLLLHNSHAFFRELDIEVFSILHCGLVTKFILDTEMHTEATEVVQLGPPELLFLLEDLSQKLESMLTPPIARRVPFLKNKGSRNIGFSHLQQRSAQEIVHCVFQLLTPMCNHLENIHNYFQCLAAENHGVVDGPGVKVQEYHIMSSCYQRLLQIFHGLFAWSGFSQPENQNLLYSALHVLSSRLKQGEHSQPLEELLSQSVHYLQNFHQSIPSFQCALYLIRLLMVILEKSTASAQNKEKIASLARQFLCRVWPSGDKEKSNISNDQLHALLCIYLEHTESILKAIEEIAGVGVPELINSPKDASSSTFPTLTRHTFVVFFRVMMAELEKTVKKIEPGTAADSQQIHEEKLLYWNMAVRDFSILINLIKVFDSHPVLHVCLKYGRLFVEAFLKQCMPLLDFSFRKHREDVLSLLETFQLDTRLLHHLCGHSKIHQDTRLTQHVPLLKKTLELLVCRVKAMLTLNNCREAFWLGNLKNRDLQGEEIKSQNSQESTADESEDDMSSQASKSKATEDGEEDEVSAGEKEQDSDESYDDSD
UniProt Q8NEZ5: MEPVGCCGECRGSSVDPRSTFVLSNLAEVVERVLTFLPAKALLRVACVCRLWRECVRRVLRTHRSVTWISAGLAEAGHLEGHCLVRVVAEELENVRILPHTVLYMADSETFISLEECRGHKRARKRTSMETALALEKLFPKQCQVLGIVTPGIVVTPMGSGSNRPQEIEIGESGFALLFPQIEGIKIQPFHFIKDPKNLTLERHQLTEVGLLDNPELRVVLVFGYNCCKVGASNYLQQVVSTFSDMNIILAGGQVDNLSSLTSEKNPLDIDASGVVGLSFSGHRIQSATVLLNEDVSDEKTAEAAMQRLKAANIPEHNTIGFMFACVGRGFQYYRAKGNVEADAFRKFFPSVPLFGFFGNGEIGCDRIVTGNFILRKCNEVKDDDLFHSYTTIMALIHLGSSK
UniProt P22570: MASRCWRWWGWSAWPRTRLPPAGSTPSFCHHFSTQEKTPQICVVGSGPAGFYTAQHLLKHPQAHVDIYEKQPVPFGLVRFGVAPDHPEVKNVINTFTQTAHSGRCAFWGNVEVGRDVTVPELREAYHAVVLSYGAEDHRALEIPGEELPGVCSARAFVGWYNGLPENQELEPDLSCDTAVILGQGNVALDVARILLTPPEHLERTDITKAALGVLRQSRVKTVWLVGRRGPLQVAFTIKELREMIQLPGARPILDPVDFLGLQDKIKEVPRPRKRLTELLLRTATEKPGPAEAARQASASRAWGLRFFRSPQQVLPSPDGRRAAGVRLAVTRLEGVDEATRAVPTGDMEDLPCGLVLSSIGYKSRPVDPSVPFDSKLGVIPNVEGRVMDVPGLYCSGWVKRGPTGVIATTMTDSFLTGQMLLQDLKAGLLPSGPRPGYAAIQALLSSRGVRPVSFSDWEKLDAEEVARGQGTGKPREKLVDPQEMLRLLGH
UniProt Q8NFZ0: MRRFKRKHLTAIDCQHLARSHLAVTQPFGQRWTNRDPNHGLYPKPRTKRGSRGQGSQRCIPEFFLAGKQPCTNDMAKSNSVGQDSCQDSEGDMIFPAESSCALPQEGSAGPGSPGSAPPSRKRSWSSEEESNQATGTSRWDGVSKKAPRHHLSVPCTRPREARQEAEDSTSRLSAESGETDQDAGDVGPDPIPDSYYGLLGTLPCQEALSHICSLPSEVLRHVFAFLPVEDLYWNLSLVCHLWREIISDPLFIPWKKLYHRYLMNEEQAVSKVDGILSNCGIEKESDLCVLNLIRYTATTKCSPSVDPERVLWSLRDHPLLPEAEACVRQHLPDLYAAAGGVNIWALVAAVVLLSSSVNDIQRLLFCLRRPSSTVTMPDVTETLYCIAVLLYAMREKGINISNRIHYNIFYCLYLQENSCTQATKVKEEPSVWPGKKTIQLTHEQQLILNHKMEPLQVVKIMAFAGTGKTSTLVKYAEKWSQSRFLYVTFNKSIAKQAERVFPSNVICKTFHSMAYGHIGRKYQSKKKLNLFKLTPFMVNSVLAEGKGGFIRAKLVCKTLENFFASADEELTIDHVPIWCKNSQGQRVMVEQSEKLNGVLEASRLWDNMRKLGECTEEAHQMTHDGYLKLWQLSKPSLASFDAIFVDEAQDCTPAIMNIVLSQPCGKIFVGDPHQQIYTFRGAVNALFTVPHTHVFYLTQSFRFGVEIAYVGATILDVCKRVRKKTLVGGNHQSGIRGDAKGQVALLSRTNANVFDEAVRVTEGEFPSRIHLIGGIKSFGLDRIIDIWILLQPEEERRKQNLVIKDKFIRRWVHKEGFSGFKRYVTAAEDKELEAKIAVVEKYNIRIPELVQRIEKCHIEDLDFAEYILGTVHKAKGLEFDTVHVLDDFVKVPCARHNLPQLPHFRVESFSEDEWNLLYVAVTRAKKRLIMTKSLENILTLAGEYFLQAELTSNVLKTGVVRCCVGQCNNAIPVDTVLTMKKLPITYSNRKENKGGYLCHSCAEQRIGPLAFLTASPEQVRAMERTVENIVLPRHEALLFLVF
UniProt Q6PCT2: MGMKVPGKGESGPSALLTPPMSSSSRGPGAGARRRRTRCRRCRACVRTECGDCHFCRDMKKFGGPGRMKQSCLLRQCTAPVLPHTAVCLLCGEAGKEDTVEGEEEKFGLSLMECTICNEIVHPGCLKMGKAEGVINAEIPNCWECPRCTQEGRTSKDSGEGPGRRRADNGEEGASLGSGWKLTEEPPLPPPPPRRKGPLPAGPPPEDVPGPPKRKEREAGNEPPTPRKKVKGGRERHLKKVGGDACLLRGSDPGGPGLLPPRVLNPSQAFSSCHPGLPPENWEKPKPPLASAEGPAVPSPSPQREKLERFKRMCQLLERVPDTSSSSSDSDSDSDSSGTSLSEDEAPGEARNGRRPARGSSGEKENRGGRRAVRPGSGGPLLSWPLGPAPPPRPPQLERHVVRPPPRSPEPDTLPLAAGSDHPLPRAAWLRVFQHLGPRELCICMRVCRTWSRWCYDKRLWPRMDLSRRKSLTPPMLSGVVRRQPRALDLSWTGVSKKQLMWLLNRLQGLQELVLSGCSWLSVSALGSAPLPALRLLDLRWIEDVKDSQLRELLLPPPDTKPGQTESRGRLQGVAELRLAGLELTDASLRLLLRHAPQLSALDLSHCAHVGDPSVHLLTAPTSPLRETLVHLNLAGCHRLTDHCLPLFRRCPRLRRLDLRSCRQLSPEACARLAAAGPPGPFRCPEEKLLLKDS
UniProt Q92520: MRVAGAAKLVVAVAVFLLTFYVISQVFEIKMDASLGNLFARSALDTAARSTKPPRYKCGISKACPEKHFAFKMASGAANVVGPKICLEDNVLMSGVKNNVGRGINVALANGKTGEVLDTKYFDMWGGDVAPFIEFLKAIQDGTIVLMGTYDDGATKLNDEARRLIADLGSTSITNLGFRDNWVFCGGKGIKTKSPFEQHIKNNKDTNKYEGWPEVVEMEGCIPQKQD

Compound: Cc1cc(ccc1-c1ccccc1)C(=O)N1CCCN(CC1)C(=O)CCl [compound 10]
Assay: probe-labelled cysteine peptide fold change vs DMSO (competition) (log2 fold change); higher = less target engagement (more negative = stronger competition)
Details: THP-1, incubation time: 4 h
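Further: competitive profiling in live THP-1 cells: cysteine peptides tagged with an iodoacetamide desthiobiotin (IA-DTB) probe, intensity after compound treatment relative to DMSO-treated cells.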

Target	probe-labelled cysteine peptide fold change (10 µM)	probe-labelled cysteine peptide fold change (50 µM)
FGG_P02679_34_DNCCILDER (UniProt P02679)	-0.281	-0.0532
FARSB_Q9NSD9_362_ADIIHACDIVEDAAIAYGYNNIQMTLPK (UniProt Q9NSD9)	0.185	-0.155
FAM208B_Q5VWN6_186_VIPILSTLNCALLETK (UniProt Q5VWN6)	0.111	-0.183
FBLN1_P23142_109_CCHCCLLGR (UniProt P23142)	-0.0833	-0.383
FES_P07332_785_LPCPELCPDAVFR (UniProt P07332)	0.121	0.02
FANCI_Q9NVI1_908_SISLLCLEGLQK (UniProt Q9NVI1)	-0.0229	0.0565
FCHO1_O14526_113_CKEEVVSTLDAVQVLSGVSQLLPK (UniProt O14526)	-0.0234	0.113
FAR2_Q96K12_104_EDMQELLSCTNIIFHCAATVR (UniProt Q96K12)	0.212	0.354
FBXO30_Q8TB52_396_NVDVLSFSHAPSFNFLSNSCWSK (UniProt Q8TB52)	0.0366	-0.488
FCHO2_Q0JRZ9_86_LANCHLDLVR (UniProt Q0JRZ9)	0.269	0.387
FGG_P02679_35_DNCCILDER (UniProt P02679)	-0.126	-0.0155
FASN_P49327_779_PSCTIIPLMK (UniProt P49327)	-0.0893	-0.0245
FAM206A_Q9NX38_37_FCEDHCILQHSNR (UniProt Q9NX38)	-0.00402	-0.338
FASN_P49327_212_LGMLSPEGTCK (UniProt P49327)	-0.0812	-0.124
FANCD2_Q9BXW9_893_NSECDPTPSHR (UniProt Q9BXW9)	-0.223	-0.234
FANCI_Q9NVI1_594_CLSQQADVR (UniProt Q9NVI1)	0.0589	-0.0628
FCHO1_O14526_371_APACSPEAAAAQLR (UniProt O14526)	-0.191	-0.0316
FBN2_P35556_1012_WDEDECIHPVPGK (UniProt P35556)	0.246	0.328
FASTKD5_Q7L8L6_708_NQYCYGSR (UniProt Q7L8L6)	-0.0857	-0.144
FEN1_P39748_182_VYAAATEDMDCLTFGSPVLMR (UniProt P39748)	-0.21	0.082
FGFR1OP_O95684-3_133_TITQLECLLSIGALHFK (UniProt O95684)	-0.356	-0.497

Target	probe-labelled cysteine peptide fold change (10 µM)	probe-labelled cysteine peptide fold change (50 µM)
FASN_P49327_135_GTHTGVWVGVSGSETSEALSRDPETLVGYSMVGCQR (UniProt P49327)	-0.0765	0.00188
FASN_P49327_1471_CVLLSNLSSTSHVPEVDPGSAELQK (UniProt P49327)	0.126	-0.108
FGG_P02679_365_CHAGHLNGVYYQGGTYSK (UniProt P02679)	-0.343	-0.452
FBXO4_Q9UKT5_330_HEWQDEFSHIMAMTDPAFGSSGRPLLVLSCISQGDVKR (UniProt Q9UKT5)	0.14	-0.163
FAM208A_Q9UK61_538_IAQFLQFSLIQCR (UniProt Q9UK61)	-0.0583	0.348
FASN_P49327_223_AFDTAGNGYCR (UniProt P49327)	-0.0189	-0.00636
FBXO38_Q6PIJ6_303_NLHTIVLGACK (UniProt Q6PIJ6)	0.00945	-0.116
FBXO22_Q8NEZ5_378_CNEVKDDDLFHSYTTIMALIHLGSSK (UniProt Q8NEZ5)	-0.000319	-0.198
FASTKD1_Q53R41_446_IEAVLPQCDLNNLSSFATSVLR (UniProt Q53R41)	0.0514	0.22
FBXW5_Q969U6_503_HYNICLAR (UniProt Q969U6)	0.12	0.0297
FANCL_Q9NW38_251_HPTMLPECFFLGADHVVKPLGIK (UniProt Q9NW38)	-0.0209	-0.378
FAM160B1_Q5W0V3_507_NYTEYKPLCPEDK (UniProt Q5W0V3)	-0.204	-0.0849
FDXR_P22570_152_ALEIPGEELPGVCSAR (UniProt P22570)	-0.085	0.097
FAM160A2_Q8N612_258_YIADHSYFCPVLATGLSALYSSLPR (UniProt Q8N612)	0.23	-0.464
FBH1_Q8NFZ0_857_CHIEDLDFAEYILGTVHK (UniProt Q8NFZ0)	-0.159	-0.0737
FBXL19_Q6PCT2_637_ETLVHLNLAGCHR (UniProt Q6PCT2)	0.11	-0.516
FAM3C_Q92520_185_DNWVFCGGK (UniProt Q92520)	-0.231	0.048
FBH1_Q8NFZ0_580_TLENFFASADEELTIDHVPIWCK (UniProt Q8NFZ0)	-0.0464	-0.0926
FBXL20_Q96IG2_351+364_HLGNGACAHDQLEVIELDNCPLITDASLEHLK (UniProt Q96IG2)	0.273	-0.33
FBXL15_Q9H469_150_LSLAHCDWVDGLALR (UniProt Q9H469)	0.00924	-0.73
FBXL19_Q6PCT2_644_LTDHCLPLFR (UniProt Q6PCT2)	-0.171	-0.251

Target	probe-labelled cysteine peptide fold change (10 µM)	probe-labelled cysteine peptide fold change (50 µM)
FAM160A2_Q8N612_927_NAVYCAVIFPEFLK (UniProt Q8N612)	0.403	0.217
FAM208B_Q5VWN6_186_VIPILSTLNCALLETKK (UniProt Q5VWN6)	-0.206	-0.813
FAM208A_Q9UK61_761_QQQDTCNSGIADIHR (UniProt Q9UK61)	-0.0363	-0.758
FBXO38_Q6PIJ6_242_NCAGPTNSLK (UniProt Q6PIJ6)	0.0415	-0.194
FASTKD2_Q9NYY8_366_SLILLDECSK (UniProt Q9NYY8)	0.19	-0.107
FASN_P49327_496_GGPEVQQVPAGERPLWFICSGMGTQWR (UniProt P49327)	0.329	0.219
FERMT1_Q9BQL6_423_GCEVVPDVNVAGR (UniProt Q9BQL6)	-0.308	-0.0654
FBXL19_Q6PCT2_125_FGLSLMECTICNEIVHPGCLK (UniProt Q6PCT2)	0.208	0.515
FAM91A1_Q658Y4_232_GFIYLDVPISDDSCIAVPPLEGFVMNR (UniProt Q658Y4)	0.185	0.213
FAM98A_Q8NCA5_126_MLCVNAPPKK (UniProt Q8NCA5)	-0.128	-0.0723
FAM91A1_Q658Y4_653_NRVDLQHLCGYVTMLNASSQLADR (UniProt Q658Y4)	-0.182	-0.115
FAM136A_Q96C01_110_QQLDSCVTK (UniProt Q96C01)	-0.0114	-0.217
FAM91A1_Q658Y4_479_CESLLGLDPATCSR (UniProt Q658Y4)	0.0283	-0.01
FANCG_O15287_417_AQDALTLCEELLSR (UniProt O15287)	0.0123	0.0425
FAM208B_Q5VWN6_873_AHAAEVSFRDPNCLLPFIK (UniProt Q5VWN6)	-0.123	-0.15
FBL_P22087_268_ANCIDSTASAEAVFASEVKK (UniProt P22087)	0.0013	0.046
FAM83H_Q6ZRV2_57_FLATEGAPDFLCPEELEHVSR (UniProt Q6ZRV2)	0.0477	0.205
FANCI_Q9NVI1_650_LEACILTQGDK (UniProt Q9NVI1)	-0.0611	-0.113
FANCI_Q9NVI1_156_GVLSGEECK (UniProt Q9NVI1)	0.0902	0.316
FER_P16591_690_NCLVGENNVLK (UniProt P16591)	0.101	-0.0766
FBN2_P35556_1052_EYETLCPR (UniProt P35556)	0.0519	0.134

Target	probe-labelled cysteine peptide fold change (10 µM)	probe-labelled cysteine peptide fold change (50 µM)
FECH_P22830_196_AIAFTQYPQYSCSTTGSSLNAIYR (UniProt P22830)	-0.006	0.266
FDXR_P22570_42_TPQICVVGSGPAGFYTAQHLLK (UniProt P22570)	0.0859	0.167
FAM20B_O75063_331_SILAPLYQCCIIR (UniProt O75063)	-0.129	0.232
FAM98A_Q8NCA5_126_MLCVNAPPK (UniProt Q8NCA5)	-0.123	-0.0384
FBXL20_Q96IG2_364_HLGNGACAHDQLEVIELDNCPLITDASLEHLK (UniProt Q96IG2)	0.00428	-0.051
FARSB_Q9NSD9_498_HLCAVYYNK (UniProt Q9NSD9)	-0.135	0.186
FAM76B_Q5HYJ3_73_PCQYCNIIAAFIGTK (UniProt Q5HYJ3)	-0.188	0.0361
FCGRT_P55899_275_SGDEHHYCCIVQHAGLAQPLR (UniProt P55899)	0.0281	0.0157
FARSB_Q9NSD9_151_LHQNICR (UniProt Q9NSD9)	-0.142	0.00827
FAM136A_Q96C01_53_QVHQCIER (UniProt Q96C01)	-0.0673	0.077
FANCG_O15287_503_EQGAAFNCEQGCK (UniProt O15287)	-0.111	-0.635
FAM208A_Q9UK61_734_TSNLSENCHLYEESPQPIGSLGHDADLRR (UniProt Q9UK61)	-0.205	0.0465
FANCI_Q9NVI1_1085_TAAPTVCLLVLSQAEK (UniProt Q9NVI1)	0.0136	0.198
FBXO22_Q8NEZ5_365_KFFPSVPLFGFFGNGEIGCDR (UniProt Q8NEZ5)	0.106	0.0353
FBN2_P35556_98_FHSYCCPGWK (UniProt P35556)	0.221	0.209
FCGR2A_P12318_62_LEPPWINVLQEDSVTLTCQGAR (UniProt P12318)	0.0375	0.17
FAM241A_Q8N8J7_2_CSAGELLR (UniProt Q8N8J7)	-0.174	-0.0321
FDPS_P14324_183_RGQICWYQKPGVGLDAINDANLLEACIYR (UniProt P14324)	-0.254	-0.375
FBXW11_Q9UKB1_393_VWSTSTCEFVR (UniProt Q9UKB1)	0.0772	0.242
FANCD2_Q9BXW9_310_LDLQHCVLPSR (UniProt Q9BXW9)	-0.173	-0.32
